Assay results as given in paper PMC11510716.
No constants are given. Whether binding was seen depends on the method and setting. In cells and extracts the contact can be indirect. Some results given as binding are weak or reduced against the parent protein; the word gives no strength.

The chains behind the UniProt entries cited, without tags or fusion partners. Residues count along the entry.
UniProt P09758, residues 27-323: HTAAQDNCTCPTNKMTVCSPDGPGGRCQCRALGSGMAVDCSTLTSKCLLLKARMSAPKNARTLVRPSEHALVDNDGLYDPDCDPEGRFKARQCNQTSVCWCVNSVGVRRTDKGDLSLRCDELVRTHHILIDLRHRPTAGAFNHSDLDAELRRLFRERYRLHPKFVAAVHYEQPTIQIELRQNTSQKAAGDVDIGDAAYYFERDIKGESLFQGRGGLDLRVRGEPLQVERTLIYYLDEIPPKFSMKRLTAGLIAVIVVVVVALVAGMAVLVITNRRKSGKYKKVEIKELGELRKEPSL

Biological target: Trop2 (trophoblast cell-surface antigen 2) (human) (UniProt P09758)
Assay: co-IP; Flag-Trop2 and HA-Trop2 co-expressed in HEK293 cells; lysate precleared, anti-Flag antibody overnight at 4 °C, protein G beads, blot with anti-HA; cells untreated or treated with hRS7, N14 or N152 and lysed four hours later

“Trop2 (trophoblast cell-surface antigen 2) (from UniProt P09758 27-323)” was tested, and the binding was “binds”.
